## Primary screen of a compound library

Sequences of proteins named here, by UniProt entry; tags and fusion partners are left off.
UniProt E9BF75, entry or part of it: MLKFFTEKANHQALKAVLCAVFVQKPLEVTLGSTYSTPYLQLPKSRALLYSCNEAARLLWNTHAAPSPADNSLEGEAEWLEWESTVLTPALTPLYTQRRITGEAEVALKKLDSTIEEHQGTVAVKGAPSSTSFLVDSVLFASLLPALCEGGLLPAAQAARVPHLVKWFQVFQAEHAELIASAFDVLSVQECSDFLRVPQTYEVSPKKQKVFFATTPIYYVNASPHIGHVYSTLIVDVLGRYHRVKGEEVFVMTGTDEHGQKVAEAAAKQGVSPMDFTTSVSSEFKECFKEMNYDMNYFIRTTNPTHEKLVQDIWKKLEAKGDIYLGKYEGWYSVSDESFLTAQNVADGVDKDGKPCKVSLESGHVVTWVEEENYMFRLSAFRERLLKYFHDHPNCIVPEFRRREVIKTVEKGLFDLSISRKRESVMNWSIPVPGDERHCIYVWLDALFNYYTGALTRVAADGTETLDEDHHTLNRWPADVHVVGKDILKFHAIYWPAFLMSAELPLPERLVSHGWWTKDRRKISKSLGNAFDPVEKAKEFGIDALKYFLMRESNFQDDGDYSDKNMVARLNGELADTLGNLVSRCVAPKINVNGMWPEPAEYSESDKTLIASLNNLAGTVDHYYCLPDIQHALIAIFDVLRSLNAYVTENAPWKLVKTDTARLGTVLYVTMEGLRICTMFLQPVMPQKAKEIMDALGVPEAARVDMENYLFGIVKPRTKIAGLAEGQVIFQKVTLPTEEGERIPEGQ

Measurements from “University of Dundee, Small-Polar-MMV Screening Library” (2021), ChEMBL document CHEMBL3988442.

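Primary screen of methionyl-tRNA synthetase; the read-out is not stated. Target: Methionyl-tRNA synthetase (putative), Leishmania donovani (UniProt E9BF75). The test concentration is not given. Values are per cent inhibition. Of about 68,000 compounds tested this way, about 24 (0.035%) reached 50% or more in at least one test.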

All values are in %. The record does not define 0% and 100%; most values in the screen are far below 50% and negative numbers occur (in some assays of this library far below -100). This is an unselected part of the compounds tested.

structure	inhibition
CCCc1cc(C(=O)N2CCC3(CCCNC3=O)C2)cs1 (configuration not stated)	3.425
CCN1CC2(CC1=O)CN(Cc1ccoc1)CCN(C(=O)C(C)C)C2 (configuration not stated)	8.357
Cc1nc(C2CCN(C)CC2)cc(N2CCOc3ccc(Cl)cc3C2)n1	20.62
Cc1ccsc1CNC(=O)Nc1ccn(CCN2CCOCC2)n1	6.628
Cc1cc(C)n(CC2CN(Cc3nc(C4CC4)no3)CCO2)n1 (configuration not stated)	20.77
Cc1c[nH]c(C2COCCN2C(=O)c2ccc(=O)[nH]n2)n1 (configuration not stated)	4.658
OC(CN1CCCCCCC1)c1ccc(OC(F)(F)F)cc1 (configuration not stated)	9.509
CO[C@@]1(C)C[C@@H](O)C12CCN(C(=O)c1ccccc1C(C)=O)CC2	10.23
Cn1cc(S(=O)(=O)Nc2ccc(Cl)cn2)cc1C(N)=O	18.44
CN(C1CCCCC1)S(=O)(=O)NC1CCCN(c2ncccn2)C1 (configuration not stated)	22.55
COc1ccccc1CNC(=O)C(C)N1CC(n2nc(C)cc2C)C1 (configuration not stated)	10.03
O=C1CC2(CCSC2)C(=O)N1CCCc1ccccc1 (configuration not stated)	11.35
O=C1CC(c2ccsc2)c2snc(C(=O)O)c2N1 (configuration not stated)	3.226
Cc1nc(CN2C(=O)C[C@@H]3[C@@H]2CCN3Cc2cnn(C)c2)cs1	16.99
CCc1nc(N2CCC3(CC2)OCCCC3O)ncc1C (configuration not stated)	-32.13
COc1cc(-c2noc(C(CC(C)C)N3CCCCC3=O)n2)ccn1 (configuration not stated)	5.722
O=C(CCCOc1ccccc1)N1CCCC1Cn1cccn1 (configuration not stated)	8.659
Cc1cc(C)n(C2CCCN(C(=O)Cc3cccs3)C2)n1 (configuration not stated)	1.972
Cc1ccc(NC(C)C(=O)N(C)Cc2cccc(F)c2)cc1C(N)=O (configuration not stated)	14.67
CC(NCc1cnc(C2CCC2)s1)c1ccc(-n2cccn2)cc1 (configuration not stated)	12.03
COCC(=O)N1CCC([C@@H]2C[C@H](C(F)(F)F)n3nc(C)cc3N2)CC1	18.01
O=C(Cc1ccncc1)N1CCC2(CC1)CC(c1ccccc1)CO2 (configuration not stated)	7.625
CCOc1ccccc1N(C)Cc1nccn1C	5.442
CC(=O)N1CCC(c2nnc3ccc(C(=O)NC(C)C)cn23)C1 (configuration not stated)	-2.256
Cc1ccc(CN2C[C@@H]3CN(CC4CCOCC4)CCO[C@@H]3C2)s1	13.41
CC(=O)Nc1cccc2c1ccn2CC(=O)NC(C)C	12.74
O=C(O)C1(Cc2ccccc2Cl)CCN(c2ncccn2)CC1	7.117
Cc1ccc(-c2ccnc(N(C)CC3CCCO3)n2)c(C)n1 (configuration not stated)	19.77
O=C(C1CC1)N1CCC2(CC1)CNCCO2	9.42
CCN1CC2(CC1=O)CN(Cc1ccccn1)CCN(C(C)=O)C2 (configuration not stated)	18.27
CC(=O)N1CCO[C@@H]2CN(S(=O)(=O)c3cccnc3)C[C@@H]2C1	13.19
O=C1CC2(CCN(C(=O)c3ccccn3)C2)Nc2ccccc2N1 (configuration not stated)	12
Cc1csc(C2CCCN(C(=O)c3ccc(=O)n(C)n3)C2)n1 (configuration not stated)	7.063
Cc1nsc(NC2CCOC3(CCCC3)C2)n1 (configuration not stated)	-2.32
Cn1c(Cn2ccnc2)nnc1C1CCN(C(=O)C2(C)CC2)CC1	16.5
COCc1ccccc1C(=O)NCC(O)c1ccccc1F (configuration not stated)	0.9926
O=C(NC1CCN(C(=O)C2CCCCC2)C1)c1ccncc1Cl (configuration not stated)	12.91
CNC(=O)C1(c2cnccn2)CCCN1C(=O)c1ncccc1C (configuration not stated)	19.27
Cc1cc(C(=O)N2CCC3(C2)CN(c2ccsc2)C(=O)CN3C)[nH]n1 (configuration not stated)	6.667
CNC(=O)c1cccc(C2CNCCN2C(C)=O)c1 (configuration not stated)	9.247
O=C(c1ccnc(-n2cnnc2)c1)N1CCCC2(CCNC2)C1 (configuration not stated)	19.76
Cc1cc(Br)cnc1N(C)CC1CCOC1 (configuration not stated)	16.33
CN(Cc1cnn(C)c1)C(=O)Nc1cccnc1-n1cccn1	5.932
CCCn1ncc(C2CC(=O)NCc3nc4sc(C)cn4c32)c1C (configuration not stated)	11.03
COc1ccc(NC(C)c2nnnn2-c2ccccc2)cc1F (configuration not stated)	19.76
Cc1noc(C)c1-c1nc(C2CCCN(C(=O)CN)C2)ccc1CO (configuration not stated)	9.119
CC(=O)N1CC(=O)N(c2ccsc2)CC12CCN(Cc1ccccn1)C2 (configuration not stated)	15.56
Cn1ccc(C(=O)N2CCN(c3nccs3)CC2)cc1=O	16.11
O=C(c1ccccc1)N1CCN(CC(O)c2ccc(F)cc2)CC1 (configuration not stated)	18.44
Cc1nccn1C1CCCN(C(=O)c2cccc(OCC(N)=O)c2)C1 (configuration not stated)	10.23
COC(=O)COc1cccc(NS(=O)(=O)c2cc(C(=O)O)cs2)c1	7.975
Cc1c(Cl)c(C(=O)NC(C)CN2CCOCC2)nn1C (configuration not stated)	5.949
COc1nn(C)cc1-c1nnc(SCc2cccnc2)n1C	9.832
CC(=O)N1CCCN(C(=O)NCC2(c3cccs3)CCCC2)CC1	4.393
COC(=O)c1ccoc1CN(C)CC(=O)N(C)C	9.051
CC(C)S(=O)(=O)CC(=O)NCC(Cc1ccc(F)cc1)C(N)=O (configuration not stated)	12.96
CCCc1cc(=O)[nH]c2nnc(SCC(=O)NC(C)(C)C)n12	12.24
CN(CC(=O)N1CCCC1)C(=O)Cc1csc(-c2ncccn2)n1	20.77
Cc1nnc(CN2CCC3(CCC(=O)N([C@H]4CC[C@H](O)CC4)C3)CC2)o1	14.75
COCCNC(=O)[C@H]1CN(c2ncccn2)C[C@H]2OCC[C@@H]12	9.841
CC(C)n1cnnc1CN(C)Cc1cnc(-c2cccs2)nc1	9.639
COc1cc2c(cc1OC)S(=O)(=O)N(Cc1ccccc1C)C2=O	1.761
OCc1ccc(CN2CCC(n3cc(-c4ccsc4)nn3)CC2)o1	6.87
Cc1nc(C)c(C(=O)Nc2ccc(-c3nnc(N(C)C)o3)cc2)o1	13.7
CCN(Cc1ccc(CN(C)C)cc1)C(=O)c1ccncc1O	5.85
Cc1noc(C)c1CN1CCC2(CC1)NC(=O)CC2c1cnn(C)c1 (configuration not stated)	14.52
CCn1cnnc1CNC(=O)c1cc(Cl)c(I)cc1OC	21.49
O=C(c1ccc[nH]1)N1CCCC1c1nc(-c2ccccc2)n[nH]1 (configuration not stated)	9.028
COc1ncc(CN2CCC3(CCNC(=O)CC3)CC2)cn1	11.58
CN1C(Cn2cccn2)C[C@@H]2CN(Cc3nccs3)CC[C@@H]21 (some centres not stated)	4.194
O=C(CSc1ccncc1)N1CCC2(CC1)c1ccccc1CC2O (configuration not stated)	12.71
O=C(CNC(=O)Nc1c(F)cccc1Oc1ccccc1)NC1CC1	13.17
CCCN1CCC(c2nc3ccc(-c4ccccc4)cn3n2)CC1	13.49
CC(C)c1nc(CNC2CCN(C(=O)OC(C)(C)C)CC2)cs1	10.66
Cc1cccc(-c2noc(CN3CCCC3Cn3cccn3)n2)c1 (configuration not stated)	19.58
Cc1ccc(Oc2ncccc2CNS(=O)(=O)N2CCOCC2)cn1	6.186
CCN(CC1CCCO1)C(=O)Nc1cccc(Cl)c1OC (configuration not stated)	8.889
CCOC(=O)CSc1nnc([C@@H](N)CC(C)C)o1	15.63

Repeated from the top, 9 entries:

structure	inhibition
CCCc1cc(C(=O)N2CCC3(CCCNC3=O)C2)cs1 (configuration not stated)	3.425
CCN1CC2(CC1=O)CN(Cc1ccoc1)CCN(C(=O)C(C)C)C2 (configuration not stated)	8.357
Cc1nc(C2CCN(C)CC2)cc(N2CCOc3ccc(Cl)cc3C2)n1	20.62
Cc1ccsc1CNC(=O)Nc1ccn(CCN2CCOCC2)n1	6.628
Cc1cc(C)n(CC2CN(Cc3nc(C4CC4)no3)CCO2)n1 (configuration not stated)	20.77
Cc1c[nH]c(C2COCCN2C(=O)c2ccc(=O)[nH]n2)n1 (configuration not stated)	4.658
OC(CN1CCCCCCC1)c1ccc(OC(F)(F)F)cc1 (configuration not stated)	9.509
CO[C@@]1(C)C[C@@H](O)C12CCN(C(=O)c1ccccc1C(C)=O)CC2	10.23
Cn1cc(S(=O)(=O)Nc2ccc(Cl)cn2)cc1C(N)=O	18.44